Where a chain is given by its changes, count along the chain named. These are yes or no findings as the source states them, for the method shown. Some results given as binding are weak or reduced against the parent protein; the word gives no strength.
Legend:
[1] = target: T1, 55 kD GDNF receptor subunit of rat cell lines (confirmed to be GDNFR-α) (rat) (UniProt Q62997); experiment: affinity labeling: 125I-GDNF cross-linked to RN33B cells, SDS/PAGE, autoradiography
T1 sequence (looked up): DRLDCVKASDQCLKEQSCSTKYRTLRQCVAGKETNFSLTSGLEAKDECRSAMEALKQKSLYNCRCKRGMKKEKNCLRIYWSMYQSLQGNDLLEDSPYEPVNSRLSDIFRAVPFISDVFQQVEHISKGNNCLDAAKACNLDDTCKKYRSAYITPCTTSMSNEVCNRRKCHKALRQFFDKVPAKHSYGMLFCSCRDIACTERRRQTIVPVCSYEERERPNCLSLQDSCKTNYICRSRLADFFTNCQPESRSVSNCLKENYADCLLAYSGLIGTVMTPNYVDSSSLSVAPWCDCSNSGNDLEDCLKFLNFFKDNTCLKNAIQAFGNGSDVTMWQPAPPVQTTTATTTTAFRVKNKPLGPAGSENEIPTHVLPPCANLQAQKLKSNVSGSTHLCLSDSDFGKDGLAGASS

Chains of the proteins cited; added tags and fusions are not shown. Residues count along the entry.
UniProt P35546, residues 29-1115: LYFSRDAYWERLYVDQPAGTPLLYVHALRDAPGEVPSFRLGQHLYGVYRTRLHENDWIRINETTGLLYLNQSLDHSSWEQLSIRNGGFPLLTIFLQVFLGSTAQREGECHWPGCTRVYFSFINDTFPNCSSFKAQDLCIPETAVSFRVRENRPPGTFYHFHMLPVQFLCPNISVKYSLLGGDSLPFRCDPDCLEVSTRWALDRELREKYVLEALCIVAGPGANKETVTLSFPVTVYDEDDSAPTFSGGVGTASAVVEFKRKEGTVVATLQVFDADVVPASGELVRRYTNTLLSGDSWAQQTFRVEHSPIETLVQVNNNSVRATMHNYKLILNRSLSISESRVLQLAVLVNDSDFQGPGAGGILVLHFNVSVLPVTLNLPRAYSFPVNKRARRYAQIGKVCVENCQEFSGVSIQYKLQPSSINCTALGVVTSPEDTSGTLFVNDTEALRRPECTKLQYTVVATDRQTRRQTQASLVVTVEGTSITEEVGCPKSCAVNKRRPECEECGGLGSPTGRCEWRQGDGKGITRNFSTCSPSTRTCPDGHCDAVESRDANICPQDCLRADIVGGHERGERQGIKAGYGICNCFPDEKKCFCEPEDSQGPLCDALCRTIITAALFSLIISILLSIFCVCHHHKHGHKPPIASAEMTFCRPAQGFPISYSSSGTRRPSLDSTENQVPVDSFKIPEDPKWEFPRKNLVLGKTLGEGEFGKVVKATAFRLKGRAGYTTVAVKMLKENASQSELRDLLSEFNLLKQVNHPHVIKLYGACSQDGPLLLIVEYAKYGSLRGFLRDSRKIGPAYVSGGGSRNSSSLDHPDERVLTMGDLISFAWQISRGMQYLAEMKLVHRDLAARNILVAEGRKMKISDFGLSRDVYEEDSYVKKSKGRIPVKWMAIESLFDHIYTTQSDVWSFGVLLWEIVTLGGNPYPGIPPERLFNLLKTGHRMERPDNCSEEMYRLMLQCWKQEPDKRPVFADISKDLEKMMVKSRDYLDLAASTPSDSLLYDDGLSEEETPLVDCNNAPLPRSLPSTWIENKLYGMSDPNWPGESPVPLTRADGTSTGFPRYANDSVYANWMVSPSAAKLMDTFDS

[2] = target: T2, 70 kD GDNF receptor subunit of rat cell lines (designated GDNFR-β) (rat) (UniProt O35977); experiment: as above
T2 sequence: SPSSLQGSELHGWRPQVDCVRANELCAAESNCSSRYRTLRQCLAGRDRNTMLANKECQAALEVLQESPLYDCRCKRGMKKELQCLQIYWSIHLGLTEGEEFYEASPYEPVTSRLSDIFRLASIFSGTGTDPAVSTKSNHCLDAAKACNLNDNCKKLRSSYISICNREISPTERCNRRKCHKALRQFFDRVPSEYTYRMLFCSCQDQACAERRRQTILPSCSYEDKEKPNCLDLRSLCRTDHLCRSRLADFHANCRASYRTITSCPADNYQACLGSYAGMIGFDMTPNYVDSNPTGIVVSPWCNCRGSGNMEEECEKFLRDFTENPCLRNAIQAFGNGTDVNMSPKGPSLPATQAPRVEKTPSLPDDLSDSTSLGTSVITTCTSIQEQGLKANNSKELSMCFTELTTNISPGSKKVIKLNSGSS

[3] = target: T1, 55 kD GDNF receptor subunit of rat cell lines (confirmed to be GDNFR-α) (rat); experiment: displacement of 125I-GDNF by increasing cold GDNF on RN33B cells, cross-linking, SDS-PAGE, band of the subunit cut out and counted
[4] = target: T2, 70 kD GDNF receptor subunit of rat cell lines (designated GDNFR-β) (rat); experiment: as above
[5] = target: T1, 55 kD GDNF receptor subunit of rat cell lines (confirmed to be GDNFR-α) (rat); experiment: EDAC cross-linking to RN33B cells, SDS/PAGE side by side
[6] = target: T2, 70 kD GDNF receptor subunit of rat cell lines (designated GDNFR-β) (rat); experiment: as above
[7] = target: T1, 55 kD GDNF receptor subunit of rat cell lines (confirmed to be GDNFR-α) (rat); experiment: DSS cross-linking of 125I-GDNF to C6, RN33B and RN46A cells
[8] = target: T2, 70 kD GDNF receptor subunit of rat cell lines (designated GDNFR-β) (rat); experiment: as above
[9] = target: T3, 55 kD GDNF receptor subunit of mouse Sertoli TM4 cells (mouse) (UniProt P97785); experiment: DSS cross-linking of 125I-GDNF to mouse Sertoli TM4 cells
T3 sequence (looked up): T1 sequence (looked up) with I195V, S221N, V278I, V349I, S394N, F396Y

[10] = target: T4, 70 kD GDNF receptor subunit of mouse cell lines (MN-1, TM4, SK-N-SH as printed) (mouse) (UniProt O08842); experiment: as above
T4 sequence (looked up): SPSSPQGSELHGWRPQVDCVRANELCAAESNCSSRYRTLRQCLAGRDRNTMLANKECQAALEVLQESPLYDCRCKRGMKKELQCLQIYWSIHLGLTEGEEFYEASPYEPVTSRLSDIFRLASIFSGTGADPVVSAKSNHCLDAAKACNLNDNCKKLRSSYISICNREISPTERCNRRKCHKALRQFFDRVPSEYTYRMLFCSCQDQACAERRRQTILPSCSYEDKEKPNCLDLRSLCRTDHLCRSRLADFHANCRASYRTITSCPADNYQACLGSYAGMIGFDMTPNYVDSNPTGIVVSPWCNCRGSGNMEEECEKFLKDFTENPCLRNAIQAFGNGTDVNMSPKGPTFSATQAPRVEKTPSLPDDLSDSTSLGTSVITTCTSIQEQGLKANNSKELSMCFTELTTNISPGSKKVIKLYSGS

[11] = target: mouse c-RET (product of the c-ret proto-oncogene) (mouse) (UniProt P35546); experiment: affinity labeling: 125I-GDNF cross-linked to MN-1 cells, SDS/PAGE, autoradiography
[12] = target: T4, 70 kD GDNF receptor subunit of mouse cell lines (MN-1, TM4, SK-N-SH as printed) (mouse); experiment: as above
[13] = target: mouse c-RET (product of the c-ret proto-oncogene) (mouse) (UniProt P35546); experiment: cross-linking of 125I-GDNF to MN-1 cells, anti-c-RET immunoprecipitation
[14] = target: T4, 70 kD GDNF receptor subunit of mouse cell lines (MN-1, TM4, SK-N-SH as printed) (mouse); experiment: cross-linking of 125I-GDNF to MN-1 cells
[15] = target: mouse c-RET (product of the c-ret proto-oncogene) (mouse) (UniProt P35546); experiment: EDAC cross-linking of 125I-GDNF to MN-1 cells
[16] = target: T4, 70 kD GDNF receptor subunit of mouse cell lines (MN-1, TM4, SK-N-SH as printed) (mouse); experiment: affinity labeling: 125I-GDNF cross-linked to SK-N-SH cells, SDS/PAGE, autoradiography
[17] = target: mouse c-RET (product of the c-ret proto-oncogene) (mouse) (UniProt P35546); experiment: EDAC cross-linking of 125I-GDNF to MN-1 cells, anti-c-RET immunoprecipitation
[18] = target: T1, 55 kD GDNF receptor subunit of rat cell lines (confirmed to be GDNFR-α) (rat); experiment: affinity labeling: 125I-GDNF cross-linked to C6 cells, SDS/PAGE, autoradiography
[19] = target: T2, 70 kD GDNF receptor subunit of rat cell lines (designated GDNFR-β) (rat); experiment: as above
[20] = target: T1, 55 kD GDNF receptor subunit of rat cell lines (confirmed to be GDNFR-α) (rat); experiment: affinity labeling: 125I-GDNF cross-linked to RN46A cells, SDS/PAGE, autoradiography
[21] = target: T2, 70 kD GDNF receptor subunit of rat cell lines (designated GDNFR-β) (rat); experiment: as above
[22] = target: T1, 55 kD GDNF receptor subunit of rat cell lines (confirmed to be GDNFR-α) (rat); experiment: affinity labeling with the cross-linker EDAC
[23] = target: T2, 70 kD GDNF receptor subunit of rat cell lines (designated GDNFR-β) (rat); experiment: affinity labeling with the cross-linker EDAC
[24] = target: T3, 55 kD GDNF receptor subunit of mouse Sertoli TM4 cells (mouse); experiment: affinity labeling: 125I-GDNF cross-linked to TM4 cells, SDS/PAGE, autoradiography
[25] = target: T4, 70 kD GDNF receptor subunit of mouse cell lines (MN-1, TM4, SK-N-SH as printed) (mouse); experiment: as above
[26] = target: mouse c-RET (product of the c-ret proto-oncogene) (mouse) (UniProt P35546); experiment: displacement of 125I-GDNF by increasing cold GDNF on MN-1 cells, cross-linking, SDS-PAGE, band of the subunit cut out and counted
[27] = target: T4, 70 kD GDNF receptor subunit of mouse cell lines (MN-1, TM4, SK-N-SH as printed) (mouse); experiment: as above

Measured: binding

B1: recombinant rat GDNF produced in Sf21 insect cells using a baculovirus expression system (ligand, UniProt Q07731 78-211, looked up)
chain: SPDKQAAALPRRERNRQAAAASPENSRGKGRRGQRGKNRGCVLTAIHLNVTDLGLGYETKEELIFRYCSGSCEAAETMYDKILKNLSRSRRLTSDKVGQACCRPVAFDDDLSFLDDSLVYHILRKHSAKRCGCI
modifications: labeled with Na-^125I by the chloramine-T method where used as tracer
binds: all assays above

— patent US20040126819A1
